Assay results published in PMC5389854.
For at least one entry, the source does not settle the construct or the ends of the probe.

The chains behind the UniProt entries cited, without tags or fusion partners.
UniProt K7K6B8, entry or part of it: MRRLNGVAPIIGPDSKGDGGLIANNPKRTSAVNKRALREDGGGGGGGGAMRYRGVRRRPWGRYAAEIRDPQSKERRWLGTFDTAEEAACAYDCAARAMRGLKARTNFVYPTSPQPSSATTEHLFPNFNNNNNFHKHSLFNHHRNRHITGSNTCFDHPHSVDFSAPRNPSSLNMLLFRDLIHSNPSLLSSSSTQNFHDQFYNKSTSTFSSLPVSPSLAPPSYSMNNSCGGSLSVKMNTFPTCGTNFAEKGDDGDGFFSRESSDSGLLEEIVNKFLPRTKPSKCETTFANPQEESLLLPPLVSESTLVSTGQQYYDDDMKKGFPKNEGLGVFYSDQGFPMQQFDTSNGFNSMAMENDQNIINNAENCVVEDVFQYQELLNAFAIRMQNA

Tests used:
[1] = biological target: GmESR1 (Glycine max cv. Dongnong 50) (UniProt K7K6B8); experiment: EMSA; conditions: EMSA as in Kass et al. (2000); pH and temperature not stated; recombinant protein; protein details: His (pET-29b); label: digoxigenin-ddUTP
[2] = biological target: GmESR1 (Glycine max cv. Dongnong 50) (UniProt K7K6B8); experiment: competition with a labelled probe; conditions: 100-fold unlabeled versus labeled GCC-box probe, labeled probe not bound; EMSA as in Kass et al. (2000); pH and temperature not stated; recombinant protein; protein details: His (pET-29b)

## ATCCATAAGAGCCGCCACTAAAATAAGACCGATCAA / TTGATGGTCTTATTTTAGTGGCGGCTCTTATGGAT [GCC-box probe]
[1]
  binding result: binds

## ATCCATAAGAGCCGCCACTAAAATAAGACCGATCAA / TTGATGGTCTTATTTTAGTGGCGGCTCTTATGGAT [unlabeled GCC-box competitor]
[2]
  binding result: binds
